Results published in EP3470426A1.
Results are given in words; binding and its absence hold for the method and conditions named. Some entries that bind do so weakly or less than the wild type.

By UniProt entry, the sequences of proteins in these tests, tags left out. Where a name states a change or a piece, a line headed by the entry shows the natural chain unless it says otherwise.
UniProt Q07011: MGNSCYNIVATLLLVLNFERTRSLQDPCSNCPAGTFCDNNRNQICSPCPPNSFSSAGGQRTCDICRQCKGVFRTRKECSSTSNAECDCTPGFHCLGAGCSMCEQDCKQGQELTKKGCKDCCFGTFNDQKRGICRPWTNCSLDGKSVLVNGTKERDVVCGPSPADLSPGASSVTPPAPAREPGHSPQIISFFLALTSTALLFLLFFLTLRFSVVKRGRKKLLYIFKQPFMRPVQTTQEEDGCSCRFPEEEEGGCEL

B1: PRO951 (bispecific antibody)
chain: DIQMTQSPSSLSASVGDRVTITCQASQSINDYLAWYQQKPGKAPKLLIYKASTLASGVPSRFSGSGSGTDFTLTISSLQPEDFATYYCQQGYIITDIDNVFGTGTKVTVLGGGGGSEVQLVESGGGLVQPGGSLRLSCAASGFSFNNDYDMCWVRQAPGKGLEWIGCIDTGDGSTYYASWAKGRFTISRDNSKNTVYLQMNSLRAEDTAVYYCAREAASSSGYGMGYFDLWGQGTLVTVSSGGGGSGGGGSGGGGSGGGGSIQMTQSPSSLSASVGDRVTITCQSSQSVYDNNWLAWYQQKPGKAPKLLIYRASNLASGVPSRFSGSGSGTDFTLTISSLQPEDFATYYCQGTYLSSNWYWAFGTGTKVTVLGGGGGSQVQLQESGPGLVKPSETLSLTCKVSGFSFSSGYDMCWIRQPPGKGLEWIGCVVAGSVDITYYASWAKGRVTISVDSSKNQFSLKLSSVTAADTAVYYCARKDAYSDAFNLWGQGTLVTVSS
B2: PRO885 (bispecific antibody)
chain: DIQMTQSPSSLSASVGDRVTITCQASQSINDYLAWYQQKPGKAPKLLIYKASTLASGVPSRFSGSGSGTDFTLTISSLQPEDFATYYCQQGYIITDIDNVFGTGTKVTVLGGGGGSQVQLQESGPGLVKPSETLSLTCKVSGFSFSNSYWICWIRQPPGKGLEWIGCTFVGSSDSTYYANWAKGRVTISVDSSKNQFSLKLSSVTAADTAVYYCARHPSDAVYGYANNLWGQGTLVTVSSGGGGSGGGGSGGGGSGGGGSIQMTQSPSSLSASVGDRVTITCQASQSINNVLAWYQQKPGKAPKLLIYRASTLASGVPSRFSGSGSGTDFTLTISSLQPEDFATYYCQSSYGNYGDFGTGTKVTVLGGGGGSQVQLQESGPGLVKPSETLSLTCKVSGFSFSSGYDMCWIRQPPGKGLEWIGCVVAGSVDITYYASWAKGRVTISVDSSKNQFSLKLSSVTAADTAVYYCARKDAYSDAFNLWGQGTLVTVSS

Key:
[1] = target: CD137 (recombinant, form not given) (human) (UniProt Q07011); test: SPR sandwich epitope binning (MASS-1)
[2] = target: CD137 (recombinant, form not given) (human) (UniProt Q07011); test: SPR sandwich epitope binning
[3] = target: CD137 (recombinant, form not given) (human) (UniProt Q07011); test: SPR sandwich epitope binning (MASS-1), CD137 captured by PRO951

| binding [1] | binding [2] | binding [3] | Binder |
| --- | --- | --- | --- |
| binds | binds |  | B1 |
|  | binds | binds | B2 |
